We go through 1 molecule from publication PMC3760768.

This assay concerns the target AFR1:HA (Arabidopsis). Description: co-IP; total proteins from 10-d-old Arabidopsis seedlings (F1, doubly hemizygous AGL18:FLAG and AFR1:HA) immunoprecipitated with anti-HA agarose; western blot with anti-FLAG and anti-HA.

These are yes or no findings as the source states them, for the method shown. In cells and extracts the contact can be indirect. A result given as binding can be weak or reduced; the word gives no strength. Tags and fused reporters may be left off the sequences shown.

B1: AGL18:FLAG (protein, UniProt Q9M2K8 1-256)
chain: MGRGRIEIKKIENINSRQVTFSKRRNGLIKKAKELSILCDAEVALIIFSSTGKIYDFSSVCMEQILSRYGYTTASTEHKQQREHQLLICASHGNEAVLRNDDSMKGELERLQLAIERLKGKELEGMSFPDLISLENQLNESLHSVKDQKTQILLNQIERSRIQEKKALEENQILRKQVEMLGRGSGPKVLNERPQDSSPEADPESSSSEEDENDNEEHHSDTSLQLGLSSTGYCTKRKKPKIELVCDNSGSQVASD
Regarding B1, the binding entry is listed as “binds”.
